Experimental data: PubChem BioAssay AID1259254 (NCATS, 2017)

Aim: 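Finding genes that stop cells copying their DNA twice in one cycle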 (primary screen)
Cells: human HCT116 colorectal cancer cells
Knock-down reagent: single siRNA against human genes
Duration: 3 days
Read-out: 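Nuclei stained with Hoechst and imaged; cell-cycle phase assigned by DNA content; G2 share scaled per plate, non-targeting siRNA 0%, GMNN siRNA 100%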
Scale: G2 robust z-score and G2 cells, % of GMNN control: higher = more G2 cells, more excess DNA replication; raw share of cells in G2: higher = larger share of cells with G2 DNA content
Active means: 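Active siRNAs have a G2 robust z of 5 or more median absolute deviations over the median, which in these data means about 38% or higher of GMNN control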
The whole screen tested about 59,000 reagents; shown is a random part of them. About 1,550 of them (2.6%) were called active. 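G2 share is only a proxy for re-replication; each gene was hit by three separate siRNAs, and active genes were retested.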 Raw values vary from plate to plate and are shown uncorrected. Entries without a mark were called inactive. Reagents against one gene are numbered here. Not stated in the record: the amount of reagent.

gene | reagent no. | G2 robust z-score | G2 cells, % of GMNN control | raw share of cells in G2 (%)
UBR7 (GeneID 55148) | 1 | 3.76 | 29.4 | 15.8
UBR7 (GeneID 55148) | 2 | 1.71 | 15 | 10.4
UBR7 (GeneID 55148) | 3 | 0.202 | 4.39 | 4.54
HNRNPDL (GeneID 9987) | 1 | 0.485 | 6.38 | 7.62
HNRNPDL (GeneID 9987) | 2 | -0.015 | 2.86 | 4.18
HNRNPDL (GeneID 9987) | 3 | 2.32 | 19.3 | 12.6
EIF4A3 (GeneID 9775) | 1 | 0.809 | 8.66 | 8.27
EIF4A3 (GeneID 9775) | 2 | 0.755 | 8.28 | 8.33
EIF4A3 (GeneID 9775) | 3 | -0.56 | -0.969 | 2.87
GARIN5A (GeneID 112703) | 1 | 1.48 | 13.4 | 9.46
GARIN5A (GeneID 112703) | 2 | -0.156 | 1.87 | 3.89
GARIN5A (GeneID 112703) | 3 | -0.381 | 0.283 | 1.9
ADGRA2 (GeneID 25960) | 1 | 2.25 | 18.8 | 12.6
ADGRA2 (GeneID 25960) | 2 | -1.01 | -4.12 | 3.08
ADGRA2 (GeneID 25960) | 3 | 4.5 | 34.6 | 13.9
RPL26P32 (GeneID 400055) | 1 | 3.47 | 27.4 | 13.8
RPL26P32 (GeneID 400055) | 2 | 4.61 | 35.4 | 17.6
RPL26P32 (GeneID 400055) | 3 | 2.2 | 18.5 | 12.5
TENM4 (GeneID 26011) | 1 | -1.1 | -4.77 | 2.62
TENM4 (GeneID 26011) | 2 | -0.173 | 1.75 | 4.7
TENM4 (GeneID 26011) | 3 | -0.884 | -3.25 | 2.16
SLC39A11 (GeneID 201266) | 1 | 0.246 | 4.7 | 5.29
SLC39A11 (GeneID 201266) | 2 | -0.158 | 1.86 | 3.58
SLC39A11 (GeneID 201266) | 3 | -0.139 | 1.99 | 3.39
KIAA2012 (GeneID 100652824) | 1 | -0.49 | -0.48 | 3.43
KIAA2012 (GeneID 100652824) | 2 | 1.91 | 16.4 | 8.45
KIAA2012 (GeneID 100652824) | 3 | 0.289 | 5 | 4.34
KIAA2012 (GeneID 100652824) | 4 | 1.51 | 13.6 | 8.65
KIAA2012 (GeneID 100652824) | 5 | -0.467 | -0.318 | 3.12
KIAA2012 (GeneID 100652824) | 6 | 0.974 | 9.82 | 8.14
UQCC6 (GeneID 728568) | 1 | 0.0552 | 3.36 | 4.06
UQCC6 (GeneID 728568) | 2 | -0.176 | 1.73 | 4.26
UQCC6 (GeneID 728568) | 3 | -0.331 | 0.638 | 3.78
OR4S2 (GeneID 219431) | 1 | -0.902 | -3.38 | 2.35
OR4S2 (GeneID 219431) | 2 | 2 | 17.1 | 8.98
OR4S2 (GeneID 219431) | 3 | -0.344 | 0.548 | 3.37
JPH3 (GeneID 57338) | 1 | 0.382 | 5.65 | 6.57
JPH3 (GeneID 57338) | 2 | 1.01 | 10 | 9.26
JPH3 (GeneID 57338) | 3 | 1.88 | 16.2 | 8.15
RAB6B (GeneID 51560) | 1 | -0.375 | 0.326 | 3.93
RAB6B (GeneID 51560) | 2 | 0.402 | 5.79 | 8.58
RAB6B (GeneID 51560) | 3 | -0.767 | -2.43 | 3.35
PAGR1 (GeneID 79447) | 1 | -1.1 | -4.75 | 2.51
PAGR1 (GeneID 79447) | 2 | 0.703 | 7.91 | 8.15
PAGR1 (GeneID 79447) | 3 | 0.0944 | 3.63 | 3.66
RPLP1P3 (GeneID 127099) | 1 | -0.811 | -2.74 | 3.14
RPLP1P3 (GeneID 127099) | 2 | 1.26 | 11.9 | 6.86
RPLP1P3 (GeneID 127099) | 3 | 0.314 | 5.18 | 4.46
HNRNPH1 (GeneID 3187) | 1 | 2.43 | 20.1 | 14.7
HNRNPH1 (GeneID 3187) | 2 | 0.865 | 9.05 | 7.4
HNRNPH1 (GeneID 3187) | 3 | 0.147 | 4 | 5.09
MED15 (GeneID 51586) | 1 | -0.125 | 2.09 | 3.88
MED15 (GeneID 51586) | 2 | 0.383 | 5.66 | 5.63
MED15 (GeneID 51586) | 3 | 0.0921 | 3.62 | 5.79
LOC727961 (retired record) (GeneID 727961) | 1 | -1.14 | -5.02 | 1.7
LOC727961 (retired record) (GeneID 727961) | 2 | 4.56 | 35 | 16.8
LOC727961 (retired record) (GeneID 727961) | 3 | -0.315 | 0.751 | 3.14
ANKRD42 (GeneID 338699) | 1 | -0.176 | 1.73 | 4.58
ANKRD42 (GeneID 338699) | 2 | -0.456 | -0.24 | 3.15
ANKRD42 (GeneID 338699) | 3 | 0.515 | 6.59 | 6.84
A1CF (GeneID 29974) | 1 | 1.23 | 11.6 | 8.29
A1CF (GeneID 29974) | 2 | -0.464 | -0.298 | 4.44
A1CF (GeneID 29974) | 3 | 2.03 | 17.3 | 8.69
TRERF1 (GeneID 55809) | 1 | -1.16 | -5.23 | 2.15
TRERF1 (GeneID 55809) | 2 | 0.399 | 5.77 | 8.96
TRERF1 (GeneID 55809) | 3 | 0.812 | 8.68 | 7.55
NDST4 (GeneID 64579) | 1 | 0.391 | 5.72 | 6.37
NDST4 (GeneID 64579) | 2 | 2.86 | 23.1 | 12.6
NDST4 (GeneID 64579) | 3 | -0.166 | 1.8 | 6.39

A few values from the entries so far.
Value for EIF4A3 (GeneID 9775) #1 under “G2 robust z-score”: 0.809
For “raw share of cells in G2 (%)”, RPL26P32 (GeneID 400055) #3 shows 12.5
Under “raw share of cells in G2 (%)”, ANKRD42 (GeneID 338699) #1 has 4.58
